# Source: publication PMC5035054
# The chains behind the UniProt entries cited, without tags or fusion partners.
# UniProt P08579: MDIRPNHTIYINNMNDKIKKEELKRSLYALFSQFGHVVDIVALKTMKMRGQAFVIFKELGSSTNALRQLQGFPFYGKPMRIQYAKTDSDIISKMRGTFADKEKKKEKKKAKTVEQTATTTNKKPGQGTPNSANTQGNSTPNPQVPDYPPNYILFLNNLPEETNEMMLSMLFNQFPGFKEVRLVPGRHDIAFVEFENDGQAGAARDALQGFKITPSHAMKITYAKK
# UniProt Q8TDI0: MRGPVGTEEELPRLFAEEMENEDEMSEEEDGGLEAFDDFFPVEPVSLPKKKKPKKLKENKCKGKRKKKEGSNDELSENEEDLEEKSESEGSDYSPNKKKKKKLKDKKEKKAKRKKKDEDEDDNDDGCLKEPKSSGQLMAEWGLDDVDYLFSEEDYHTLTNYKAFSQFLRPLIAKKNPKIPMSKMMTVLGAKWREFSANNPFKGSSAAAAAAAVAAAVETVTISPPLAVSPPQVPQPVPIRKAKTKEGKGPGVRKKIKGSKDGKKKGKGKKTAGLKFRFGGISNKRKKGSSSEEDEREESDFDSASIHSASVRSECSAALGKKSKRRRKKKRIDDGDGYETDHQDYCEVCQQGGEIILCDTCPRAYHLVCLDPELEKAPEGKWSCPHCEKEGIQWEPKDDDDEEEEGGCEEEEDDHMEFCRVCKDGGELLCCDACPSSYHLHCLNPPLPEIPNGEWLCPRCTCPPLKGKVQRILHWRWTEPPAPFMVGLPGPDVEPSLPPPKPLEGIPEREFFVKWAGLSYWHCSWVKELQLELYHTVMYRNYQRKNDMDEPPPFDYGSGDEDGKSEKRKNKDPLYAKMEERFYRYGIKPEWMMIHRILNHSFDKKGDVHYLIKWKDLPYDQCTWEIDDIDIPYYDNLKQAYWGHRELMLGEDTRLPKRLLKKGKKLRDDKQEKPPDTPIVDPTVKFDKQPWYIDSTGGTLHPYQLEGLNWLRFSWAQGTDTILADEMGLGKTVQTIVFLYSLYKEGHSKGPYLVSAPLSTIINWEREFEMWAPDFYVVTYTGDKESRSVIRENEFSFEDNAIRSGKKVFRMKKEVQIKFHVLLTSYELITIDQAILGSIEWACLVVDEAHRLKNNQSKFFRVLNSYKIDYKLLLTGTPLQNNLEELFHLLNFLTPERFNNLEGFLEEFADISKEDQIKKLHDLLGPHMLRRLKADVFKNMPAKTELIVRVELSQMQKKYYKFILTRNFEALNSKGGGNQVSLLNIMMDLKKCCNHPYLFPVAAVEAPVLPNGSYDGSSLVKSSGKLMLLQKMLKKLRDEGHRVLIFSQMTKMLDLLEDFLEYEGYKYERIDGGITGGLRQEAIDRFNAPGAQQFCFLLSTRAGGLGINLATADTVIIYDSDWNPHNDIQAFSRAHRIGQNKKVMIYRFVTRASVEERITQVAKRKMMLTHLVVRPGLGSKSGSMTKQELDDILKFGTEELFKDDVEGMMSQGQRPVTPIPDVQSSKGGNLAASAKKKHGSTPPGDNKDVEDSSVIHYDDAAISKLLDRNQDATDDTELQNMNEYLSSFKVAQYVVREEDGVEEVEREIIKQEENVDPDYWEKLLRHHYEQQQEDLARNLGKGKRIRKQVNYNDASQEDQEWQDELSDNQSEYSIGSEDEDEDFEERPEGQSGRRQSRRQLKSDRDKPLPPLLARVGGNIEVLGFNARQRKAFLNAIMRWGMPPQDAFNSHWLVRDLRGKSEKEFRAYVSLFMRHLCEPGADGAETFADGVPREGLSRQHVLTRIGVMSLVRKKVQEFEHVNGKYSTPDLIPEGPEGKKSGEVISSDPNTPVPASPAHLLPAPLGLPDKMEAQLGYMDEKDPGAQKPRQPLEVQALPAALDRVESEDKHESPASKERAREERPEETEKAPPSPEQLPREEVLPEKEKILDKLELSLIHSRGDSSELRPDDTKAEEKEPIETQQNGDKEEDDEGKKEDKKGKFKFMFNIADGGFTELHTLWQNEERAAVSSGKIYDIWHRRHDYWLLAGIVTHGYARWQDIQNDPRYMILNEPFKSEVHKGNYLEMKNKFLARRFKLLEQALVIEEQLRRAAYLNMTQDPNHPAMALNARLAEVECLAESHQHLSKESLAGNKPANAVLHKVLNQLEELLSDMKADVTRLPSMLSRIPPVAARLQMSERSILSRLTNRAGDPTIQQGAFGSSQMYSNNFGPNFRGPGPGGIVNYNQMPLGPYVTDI
# UniProt Q9UBU8: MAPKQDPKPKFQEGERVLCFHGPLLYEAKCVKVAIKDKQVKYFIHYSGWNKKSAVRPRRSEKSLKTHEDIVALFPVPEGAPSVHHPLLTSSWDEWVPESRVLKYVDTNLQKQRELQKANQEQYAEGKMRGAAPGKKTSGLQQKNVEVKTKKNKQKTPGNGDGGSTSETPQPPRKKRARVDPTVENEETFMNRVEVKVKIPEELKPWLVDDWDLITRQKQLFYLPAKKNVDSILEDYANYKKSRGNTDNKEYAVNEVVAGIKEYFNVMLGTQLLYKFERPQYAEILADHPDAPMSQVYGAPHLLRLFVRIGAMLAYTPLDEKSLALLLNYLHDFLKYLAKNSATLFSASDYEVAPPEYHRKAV
# UniProt Q9UKK3: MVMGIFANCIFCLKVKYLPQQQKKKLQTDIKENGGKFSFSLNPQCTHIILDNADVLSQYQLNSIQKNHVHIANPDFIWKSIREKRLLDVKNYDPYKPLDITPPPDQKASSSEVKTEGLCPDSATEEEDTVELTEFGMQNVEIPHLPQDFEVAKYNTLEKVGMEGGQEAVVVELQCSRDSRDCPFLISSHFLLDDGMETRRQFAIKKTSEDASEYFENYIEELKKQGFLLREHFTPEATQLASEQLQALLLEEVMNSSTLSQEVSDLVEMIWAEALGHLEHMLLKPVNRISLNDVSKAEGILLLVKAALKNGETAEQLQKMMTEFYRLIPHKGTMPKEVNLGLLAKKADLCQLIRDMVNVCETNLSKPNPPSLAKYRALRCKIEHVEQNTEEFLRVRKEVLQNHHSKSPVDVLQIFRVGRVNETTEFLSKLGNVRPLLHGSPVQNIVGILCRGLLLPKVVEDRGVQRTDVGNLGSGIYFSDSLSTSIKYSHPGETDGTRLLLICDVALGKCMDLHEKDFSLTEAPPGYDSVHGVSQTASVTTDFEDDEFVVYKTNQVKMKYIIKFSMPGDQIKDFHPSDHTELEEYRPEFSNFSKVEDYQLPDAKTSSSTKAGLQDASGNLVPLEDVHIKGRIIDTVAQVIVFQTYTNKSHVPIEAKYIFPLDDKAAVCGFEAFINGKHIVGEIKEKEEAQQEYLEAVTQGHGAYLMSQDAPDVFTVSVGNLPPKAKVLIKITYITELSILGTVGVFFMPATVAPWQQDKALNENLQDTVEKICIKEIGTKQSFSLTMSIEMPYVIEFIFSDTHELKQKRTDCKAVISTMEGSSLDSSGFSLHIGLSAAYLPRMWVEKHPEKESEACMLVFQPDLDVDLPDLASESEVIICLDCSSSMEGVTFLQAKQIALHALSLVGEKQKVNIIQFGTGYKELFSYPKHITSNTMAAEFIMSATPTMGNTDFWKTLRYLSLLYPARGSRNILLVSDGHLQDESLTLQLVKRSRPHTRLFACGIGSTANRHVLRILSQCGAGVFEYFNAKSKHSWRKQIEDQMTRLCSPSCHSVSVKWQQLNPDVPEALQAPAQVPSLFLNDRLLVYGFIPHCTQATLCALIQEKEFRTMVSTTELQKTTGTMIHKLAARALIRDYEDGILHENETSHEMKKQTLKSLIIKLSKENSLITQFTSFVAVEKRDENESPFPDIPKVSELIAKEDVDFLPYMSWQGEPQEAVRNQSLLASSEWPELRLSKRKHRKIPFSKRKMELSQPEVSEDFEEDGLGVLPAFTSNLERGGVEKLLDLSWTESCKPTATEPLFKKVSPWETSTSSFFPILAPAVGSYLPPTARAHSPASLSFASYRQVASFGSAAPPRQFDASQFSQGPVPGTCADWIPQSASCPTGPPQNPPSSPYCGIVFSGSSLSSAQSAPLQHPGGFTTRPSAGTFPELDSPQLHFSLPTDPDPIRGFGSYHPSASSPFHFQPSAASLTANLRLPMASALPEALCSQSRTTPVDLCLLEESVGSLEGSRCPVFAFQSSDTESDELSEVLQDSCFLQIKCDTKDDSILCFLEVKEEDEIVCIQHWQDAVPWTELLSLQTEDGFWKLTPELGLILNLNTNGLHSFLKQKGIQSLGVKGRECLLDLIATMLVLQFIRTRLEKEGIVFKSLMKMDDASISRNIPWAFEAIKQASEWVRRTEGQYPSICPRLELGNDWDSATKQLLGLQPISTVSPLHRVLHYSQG
# UniProt Q9NRF9: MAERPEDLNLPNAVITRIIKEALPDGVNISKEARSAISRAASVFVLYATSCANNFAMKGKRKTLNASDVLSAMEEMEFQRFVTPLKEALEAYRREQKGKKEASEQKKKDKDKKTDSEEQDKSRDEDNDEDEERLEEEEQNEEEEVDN
# UniProt O15047: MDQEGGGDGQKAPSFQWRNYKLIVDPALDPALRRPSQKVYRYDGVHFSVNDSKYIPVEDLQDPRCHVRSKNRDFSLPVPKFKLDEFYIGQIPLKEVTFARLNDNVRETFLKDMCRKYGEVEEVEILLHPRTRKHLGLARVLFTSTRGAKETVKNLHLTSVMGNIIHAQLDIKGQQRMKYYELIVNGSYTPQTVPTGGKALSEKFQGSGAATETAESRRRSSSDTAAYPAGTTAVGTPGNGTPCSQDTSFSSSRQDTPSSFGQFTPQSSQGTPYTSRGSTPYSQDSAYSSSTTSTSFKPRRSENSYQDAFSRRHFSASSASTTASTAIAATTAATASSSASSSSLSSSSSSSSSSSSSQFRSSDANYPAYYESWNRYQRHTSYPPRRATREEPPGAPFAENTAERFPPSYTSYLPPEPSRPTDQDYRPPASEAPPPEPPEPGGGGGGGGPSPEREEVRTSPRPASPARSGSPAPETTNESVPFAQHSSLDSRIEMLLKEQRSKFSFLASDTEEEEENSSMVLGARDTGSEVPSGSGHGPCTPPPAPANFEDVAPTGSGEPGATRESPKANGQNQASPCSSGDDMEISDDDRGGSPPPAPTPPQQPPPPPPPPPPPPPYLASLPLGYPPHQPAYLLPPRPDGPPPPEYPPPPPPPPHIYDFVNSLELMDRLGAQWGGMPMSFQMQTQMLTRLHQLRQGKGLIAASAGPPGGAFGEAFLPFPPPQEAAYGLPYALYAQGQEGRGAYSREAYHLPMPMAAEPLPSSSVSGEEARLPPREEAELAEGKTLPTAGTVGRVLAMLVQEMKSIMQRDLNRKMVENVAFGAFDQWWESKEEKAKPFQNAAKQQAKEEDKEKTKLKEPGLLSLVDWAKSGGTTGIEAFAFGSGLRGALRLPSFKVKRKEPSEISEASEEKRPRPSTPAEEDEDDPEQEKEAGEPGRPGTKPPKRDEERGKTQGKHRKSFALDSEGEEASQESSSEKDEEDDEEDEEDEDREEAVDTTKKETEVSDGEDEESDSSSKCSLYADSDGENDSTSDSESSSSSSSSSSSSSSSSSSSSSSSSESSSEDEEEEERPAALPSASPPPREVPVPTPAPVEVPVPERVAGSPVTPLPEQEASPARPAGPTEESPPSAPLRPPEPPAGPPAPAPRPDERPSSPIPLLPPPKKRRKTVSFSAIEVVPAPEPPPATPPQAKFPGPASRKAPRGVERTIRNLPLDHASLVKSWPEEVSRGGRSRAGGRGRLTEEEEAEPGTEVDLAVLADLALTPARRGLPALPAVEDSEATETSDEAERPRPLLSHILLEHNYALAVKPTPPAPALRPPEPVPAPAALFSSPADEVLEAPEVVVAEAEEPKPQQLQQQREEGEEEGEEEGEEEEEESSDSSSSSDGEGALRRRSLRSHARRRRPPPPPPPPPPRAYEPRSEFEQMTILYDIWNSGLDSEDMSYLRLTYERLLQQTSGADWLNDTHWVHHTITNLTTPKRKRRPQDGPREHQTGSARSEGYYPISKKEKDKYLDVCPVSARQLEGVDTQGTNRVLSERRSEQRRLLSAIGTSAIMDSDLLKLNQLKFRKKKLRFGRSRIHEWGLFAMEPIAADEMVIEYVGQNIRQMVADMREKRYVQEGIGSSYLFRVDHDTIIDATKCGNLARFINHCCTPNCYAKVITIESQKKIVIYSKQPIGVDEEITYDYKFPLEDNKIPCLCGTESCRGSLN
# UniProt Q969G3: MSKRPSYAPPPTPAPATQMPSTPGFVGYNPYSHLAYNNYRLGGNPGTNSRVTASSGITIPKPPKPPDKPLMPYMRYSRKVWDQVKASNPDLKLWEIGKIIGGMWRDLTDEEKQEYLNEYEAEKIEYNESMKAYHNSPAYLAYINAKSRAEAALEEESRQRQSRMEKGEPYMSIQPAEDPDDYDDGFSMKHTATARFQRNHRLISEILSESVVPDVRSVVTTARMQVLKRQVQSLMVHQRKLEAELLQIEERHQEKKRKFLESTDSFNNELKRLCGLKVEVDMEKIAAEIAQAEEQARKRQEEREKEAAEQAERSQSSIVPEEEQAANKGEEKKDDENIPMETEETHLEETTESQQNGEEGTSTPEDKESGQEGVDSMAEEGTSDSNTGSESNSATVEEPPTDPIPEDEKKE
# These are yes or no findings as the source states them, for the method shown. In cells and extracts the contact can be indirect. These calls come from enrichment with a bait or labelling near it, and not all partners need be listed. No binding means not detected with the bait.
# Molecular target: FLAG-V5-tagged U2-B” (FV5-U2-B”) (UniProt P08579)
# Experiment: affinity purification with mass spectrometry; in vitro splicing reaction of NEB” nuclear extract with AdML pre-mRNA and ATPγS, Sephacryl-S500 gel filtration, pooled spliceosome fractions on anti-FLAG M2 Affinity Gel, mass spectrometry; two independent experiments
row,Substance,binding
1,ACTL6A (from UniProt O96019 1-429),binds
2,BRCA2 (from UniProt P51587 1-3418),binds
3,BRD1 (from UniProt O95696 1-1058),binds
4,BRD7 (from UniProt Q9NPI1 1-651),binds
5,BRD8 (from UniProt Q9H0E9-4),binds
6,C6ORF130 (from UniProt Q9Y530 1-152),binds
7,CBX2 (from UniProt Q14781 1-532),binds
8,CBX3 (from UniProt Q13185 1-183),binds
9,CHD5 (from UniProt Q8TDI0 1-1954),binds
10,CHD7 (from UniProt Q9P2D1 1-2997),binds
11,DICER1 (from UniProt Q9UPY3 1-1922),binds
12,DMAP1 (from UniProt Q9NPF5 1-467),binds
13,DOT1L (from UniProt Q8TEK3 1-1537),binds
14,EHMT1 (from UniProt Q9H9B1-4),binds
15,EHMT2 (from UniProt Q96KQ7 1-1210),binds
16,EIF2C1 (from UniProt Q9UL18 1-857),binds
17,EIF2C2 (from UniProt Q9UKV8 1-859),binds
18,H2AFY2 (from UniProt Q9P0M6 1-372),binds
19,HAT1 (from UniProt O14929 1-419),no binding
20,HDAC1 (from UniProt Q13547 1-482),binds
21,HDAC2 (from UniProt Q92769 1-488),binds
22,HERC2 (from UniProt O95714 1-4834),binds
23,HP1BP3 (from UniProt Q5SSJ5 1-553),binds

row,Substance,binding
1,KAT6B (from UniProt Q8WYB5-3),binds
2,MORF4L1 (from UniProt Q9UBU8 1-362),binds
3,NASP (from UniProt P49321 1-788),binds
4,NCOR1 (from UniProt O75376 1-2440),binds
5,PARP4 (from UniProt Q9UKK3 1-1724),binds
6,PBRM1 (from UniProt Q86U86 1-1689),binds
7,POLE3 (from UniProt Q9NRF9 1-147),binds
8,PRMT5 (from UniProt O14744 1-637),binds
9,RBBP4 (from UniProt Q09028 1-425),binds
10,SETD1A (from UniProt O15047 1-1707),binds
11,SHPRH (from UniProt Q149N8 1-1683),binds
12,SMARCA1 (from UniProt P28370 1-1042),binds
13,SMARCA5 (from UniProt O60264 1-1052),binds
14,SMARCB1 (from UniProt Q12824 1-385),binds
15,SMARCC2 (from UniProt Q8TAQ2 1-1214),binds
16,SMARCD1 (from UniProt Q96GM5 1-515),binds
17,SMARCD2 (from UniProt Q92925 1-531),binds
18,SMARCE1 (from UniProt Q969G3 1-411),binds
19,TAF1 (from UniProt P21675 1-1893),binds
20,TAF5 (from UniProt Q15542 1-800),no binding
21,TNKS1BP1 (from UniProt Q9C0C2 1-1729),binds
22,TRIM28 (from UniProt Q13263 1-835),binds
23,WBP7 (from UniProt Q9UMN6 1-2715),binds
